These are yes or no findings as the source states them, for the method shown. Some binding calls cover weakened binding; strength is not graded here.
Legend:
[1] = biological target: Mdm2, wild type (no tag stated; in vitro translated or expressed in or immunoprecipitated from cells) (Homo sapiens (Human)) (UniProt Q00987); assay: NIH3T3 cells co-transfected with Mdm2 and Sumo, after UV-irradiation (data not shown)
[2] = biological target: Ubc9 of Mdm2/p53 double null cells (UniProt P63280); assay: immunoprecipitation of Mdm2 (2A10) from Mdm2/p53 double null cells, immunoblot (FIG. 8B)

Protein sequences, listed by entry. Tags and fused reporters are not part of them. Lines headed by an entry give the natural chain unless they say otherwise; changes in a name come on top. Residues count along the entry.
UniProt Q00987: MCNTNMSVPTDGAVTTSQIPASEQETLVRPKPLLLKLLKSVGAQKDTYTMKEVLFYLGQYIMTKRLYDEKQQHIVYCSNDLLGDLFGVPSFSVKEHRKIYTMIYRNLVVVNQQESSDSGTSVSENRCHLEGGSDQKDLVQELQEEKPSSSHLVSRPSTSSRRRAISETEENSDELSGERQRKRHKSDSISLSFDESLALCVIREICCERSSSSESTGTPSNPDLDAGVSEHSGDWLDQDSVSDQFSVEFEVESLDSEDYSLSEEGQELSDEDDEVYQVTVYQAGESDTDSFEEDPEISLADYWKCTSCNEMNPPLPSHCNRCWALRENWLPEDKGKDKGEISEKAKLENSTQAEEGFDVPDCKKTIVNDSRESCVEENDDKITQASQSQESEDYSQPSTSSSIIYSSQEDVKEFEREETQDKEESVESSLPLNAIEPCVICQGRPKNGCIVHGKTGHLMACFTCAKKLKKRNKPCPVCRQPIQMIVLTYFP
UniProt P63280, residues 2-158: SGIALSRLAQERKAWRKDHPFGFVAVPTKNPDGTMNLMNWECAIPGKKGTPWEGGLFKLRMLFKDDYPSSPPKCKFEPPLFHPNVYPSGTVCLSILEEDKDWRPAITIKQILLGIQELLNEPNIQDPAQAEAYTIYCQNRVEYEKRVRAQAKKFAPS

Substance | binding [1] | binding [2]
Ubc9 of mouse fibroblast cells (EJ cell lysates; NIH 3T3 cells) (from UniProt P63280 2-158) (enzyme) | binds | 
Mdm2, wild type (no tag stated; in vitro translated or expressed in or immunoprecipitated from cells) (from UniProt Q00987 1-491) (enzyme) |  | binds

Reference: US20020031818A1, “Modification of Mdm2 activity” (priority 2000, published 2002)
